From PMC7226807
These are yes or no findings as the source states them, for the method shown. Binding seen in cells or lysates may run through a third protein. A yes stands for co-enrichment or nearness to the bait. Other partners may have been found.

The chains behind the UniProt entries cited, without tags or fusion partners.
UniProt Q13283: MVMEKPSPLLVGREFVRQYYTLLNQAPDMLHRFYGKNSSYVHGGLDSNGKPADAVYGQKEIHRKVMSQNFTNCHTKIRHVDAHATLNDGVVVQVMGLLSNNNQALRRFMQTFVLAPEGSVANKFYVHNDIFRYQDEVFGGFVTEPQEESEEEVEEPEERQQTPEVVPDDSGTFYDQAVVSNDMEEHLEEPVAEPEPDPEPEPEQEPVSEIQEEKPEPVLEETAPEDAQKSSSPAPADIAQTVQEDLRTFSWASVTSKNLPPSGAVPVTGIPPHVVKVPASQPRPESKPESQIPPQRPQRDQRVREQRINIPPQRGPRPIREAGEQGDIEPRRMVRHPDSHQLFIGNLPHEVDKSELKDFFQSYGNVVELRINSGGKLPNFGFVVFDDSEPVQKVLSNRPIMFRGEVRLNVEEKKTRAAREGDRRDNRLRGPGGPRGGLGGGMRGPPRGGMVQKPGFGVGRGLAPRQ

Molecular target: T1, HspBP1 (hsp70-binding protein 1) (human (endogenous in HeLa)) (UniProt Q9NZL4)
T1 sequence: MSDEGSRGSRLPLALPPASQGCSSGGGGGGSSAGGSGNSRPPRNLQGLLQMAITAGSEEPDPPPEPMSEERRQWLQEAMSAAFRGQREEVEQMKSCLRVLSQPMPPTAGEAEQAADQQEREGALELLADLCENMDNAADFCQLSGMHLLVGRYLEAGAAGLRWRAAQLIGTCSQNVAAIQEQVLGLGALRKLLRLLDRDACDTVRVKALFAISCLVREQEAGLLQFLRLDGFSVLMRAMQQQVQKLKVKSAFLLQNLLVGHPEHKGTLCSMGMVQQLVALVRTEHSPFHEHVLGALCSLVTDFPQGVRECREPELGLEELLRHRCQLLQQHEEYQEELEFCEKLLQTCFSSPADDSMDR
Experiment: affinity purification with mass spectrometry; HeLa cells, control or DEM-treated; proteins reversibly cross-linked with DSP; complexes immunoprecipitated with antibodies against HspBP1; gel bands digested with trypsin, MSMS

binding: binds
Substance: G3BP1 (from UniProt Q13283 1-466)
